Results on five molecules are retold here after the supplement of paper PMC7411640.

The other results are listed elsewhere or left out. This data set is noisy: repeats of one test often differ as much as different tests do.

In the assay the test system is MDA-MB-468. Nature of the assay: phospho-S6 immunofluorescence (DAPI-normalised), per-plate z-score; higher = higher phospho-S6 signal (less pathway suppression). The note with it: 24 h. As for the experimental part: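 GPCR-targeted compound library (MedChemExpress HY-L006) tested on MDA-MB-468 PTEN-null TNBC cells in 384-well plates at 0.1, 1 or 10 uM, combined with vehicle, GDC0941 450 nM or lapatinib 1 uM, for 24 h. Phospho-S6 (S240/244) immunofluorescence normalised to DAPI and expressed as a per-plate z-score; values are the mean of biological triplicates.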

Setting [1] is: compound 0.1 µM, co-treatment: GDC0941 450 nM.
[2] abbreviates: compound 0.1 µM, co-treatment: lapatinib 1 uM.
The mark [3] stands for this setting: compound 0.1 µM, co-treatment: vehicle.
Setting [4] is: compound 1 µM, co-treatment: GDC0941 450 nM.
[5] abbreviates: compound 1 µM, co-treatment: lapatinib 1 uM.
The mark [6] stands for this setting: compound 1 µM, co-treatment: vehicle.
[7] abbreviates: compound 10 µM, co-treatment: GDC0941 450 nM.
The mark [8] stands for this setting: compound 10 µM, co-treatment: lapatinib 1 uM.
Setting [9] is: compound 10 µM, co-treatment: vehicle.

For `CN(C)CCc1c[nH]c2ccc(CS(=O)(=O)N3CCCC3)cc12` [Almotriptan (malate)], the “phospho-S6 immunofluorescence (z-score)” value under setting [1] was -0.12; the “phospho-S6 immunofluorescence (z-score)” value under setting [2] was determined as 1.05; the “phospho-S6 immunofluorescence (z-score)” value under setting [3] is -0.2; the “phospho-S6 immunofluorescence (z-score)” value under setting [4] is -0.67; the “phospho-S6 immunofluorescence (z-score)” value under setting [5] is 0.71; the “phospho-S6 immunofluorescence (z-score)” value under setting [6] is -0.32. In addition, the “phospho-S6 immunofluorescence (z-score)” value turned out to be 0.95 under setting [7], 0.57 under setting [8] and 0.38 under setting [9].

For `Cc1cc(NC(=O)Nc2ccc(N(C)C)cc2)c2cc(F)cc(F)c2n1`, the “phospho-S6 immunofluorescence (z-score)” value runs as follows: under setting [1], -0.22; under setting [2], -0.51; under setting [3], -0.63; under setting [4], -0.58; under setting [5], -0.25; under setting [6], -0.74. For the same molecule, the “phospho-S6 immunofluorescence (z-score)” value is -2.07 under setting [7], -0.1 under setting [8] and -2.06 under setting [9].

Consider `CCOC(=O)N1CCC(=C2c3ccc(Cl)cc3CCc3cccnc32)CC1` [Loratadine], for which the “phospho-S6 immunofluorescence (z-score)” value by setting is: under setting [1], 0.15; under setting [2], -0.51; under setting [3], -0.69; under setting [4], -0.55; under setting [5], -1.3; under setting [6], -1.35. The “phospho-S6 immunofluorescence (z-score)” value is, setting by setting: under setting [7], -1.77; under setting [8], -0.82; under setting [9], -1.25.

As to `Cc1ccc(S(=O)(=O)N2CCCC2c2ccc(F)cc2)cc1` (stereo not given), the “phospho-S6 immunofluorescence (z-score)” value under setting [1] worked out at 0.19; the “phospho-S6 immunofluorescence (z-score)” value under setting [2] is -0.25; the “phospho-S6 immunofluorescence (z-score)” value under setting [3] was 0.08; the “phospho-S6 immunofluorescence (z-score)” value under setting [4] was -2.27; the “phospho-S6 immunofluorescence (z-score)” value under setting [5] was -0.44; the “phospho-S6 immunofluorescence (z-score)” value under setting [6] was -0.3. Also, the “phospho-S6 immunofluorescence (z-score)” value under setting [7] is -2.47, the “phospho-S6 immunofluorescence (z-score)” value under setting [8] stood at 0.46 and the “phospho-S6 immunofluorescence (z-score)” value under setting [9] was -1.81.

Consider `CN1CCC(=C2c3ccccc3CCc3cccnc32)CC1` [Azatadine (dimaleate)], for which the “phospho-S6 immunofluorescence (z-score)” value was 0.09 under setting [1]; 0.78 under setting [2]; -0.03 under setting [3]; 0.94 under setting [4]; 0.26 under setting [5]; 0.67 under setting [6]. The “phospho-S6 immunofluorescence (z-score)” value is 0 under setting [7], 0.29 under setting [8] and -0.32 under setting [9].
